Source: the supplement of paper PMC12823440, “Inhibitors supercharge kinase turnover through native proteolytic circuits” (Nature, 2025)
Structures can show the parent of a compound that is named as a salt. The list shows a part of the results. The calls rarely recur for the same compound in another form.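 In K562 cells expressing nanoluciferase-fused kinases, luminescence was recorded at 4 h intervals between 2 and 18 h, normalized as percent of control with DMSO at 100% and a positive control at 0%. A significant (2 sigma) signal drop marks a time point as decreased. The authors' rule for a hit is not shown and takes in more than the number of time points.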

Sequences of proteins named here, by UniProt entry; tags and fusion partners are left off. A change or cut given only in a name is not applied to a line headed by its entry.
UniProt P06239: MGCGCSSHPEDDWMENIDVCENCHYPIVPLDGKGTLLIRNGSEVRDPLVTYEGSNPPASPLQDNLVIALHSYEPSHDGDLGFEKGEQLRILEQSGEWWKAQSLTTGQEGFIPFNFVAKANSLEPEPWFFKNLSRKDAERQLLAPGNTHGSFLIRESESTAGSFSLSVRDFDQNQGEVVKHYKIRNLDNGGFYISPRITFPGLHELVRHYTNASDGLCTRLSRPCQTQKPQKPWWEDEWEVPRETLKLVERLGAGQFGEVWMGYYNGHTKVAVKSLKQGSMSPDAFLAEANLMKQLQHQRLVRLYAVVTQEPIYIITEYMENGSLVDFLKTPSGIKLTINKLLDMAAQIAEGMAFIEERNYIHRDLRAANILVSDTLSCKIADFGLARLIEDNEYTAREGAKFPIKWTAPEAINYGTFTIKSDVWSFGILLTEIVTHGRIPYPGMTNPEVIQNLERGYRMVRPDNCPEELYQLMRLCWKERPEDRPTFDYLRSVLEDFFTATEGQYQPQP
UniProt P53671: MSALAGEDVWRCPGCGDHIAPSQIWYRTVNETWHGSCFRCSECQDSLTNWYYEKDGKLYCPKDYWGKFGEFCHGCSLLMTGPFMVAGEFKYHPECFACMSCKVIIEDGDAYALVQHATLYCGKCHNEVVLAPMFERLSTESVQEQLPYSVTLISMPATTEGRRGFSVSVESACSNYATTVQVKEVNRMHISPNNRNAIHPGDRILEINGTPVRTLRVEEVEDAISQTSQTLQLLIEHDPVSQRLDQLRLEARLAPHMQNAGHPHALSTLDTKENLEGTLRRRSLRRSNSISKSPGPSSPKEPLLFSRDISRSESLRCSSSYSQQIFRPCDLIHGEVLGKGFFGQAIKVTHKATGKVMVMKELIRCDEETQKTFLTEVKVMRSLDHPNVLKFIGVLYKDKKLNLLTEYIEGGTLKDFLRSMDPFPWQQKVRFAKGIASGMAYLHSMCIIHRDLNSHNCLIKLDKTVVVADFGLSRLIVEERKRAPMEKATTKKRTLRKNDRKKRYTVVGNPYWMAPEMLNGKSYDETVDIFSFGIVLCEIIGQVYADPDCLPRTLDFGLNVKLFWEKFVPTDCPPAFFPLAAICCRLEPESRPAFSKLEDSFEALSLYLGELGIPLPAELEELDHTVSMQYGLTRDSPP
UniProt P07948: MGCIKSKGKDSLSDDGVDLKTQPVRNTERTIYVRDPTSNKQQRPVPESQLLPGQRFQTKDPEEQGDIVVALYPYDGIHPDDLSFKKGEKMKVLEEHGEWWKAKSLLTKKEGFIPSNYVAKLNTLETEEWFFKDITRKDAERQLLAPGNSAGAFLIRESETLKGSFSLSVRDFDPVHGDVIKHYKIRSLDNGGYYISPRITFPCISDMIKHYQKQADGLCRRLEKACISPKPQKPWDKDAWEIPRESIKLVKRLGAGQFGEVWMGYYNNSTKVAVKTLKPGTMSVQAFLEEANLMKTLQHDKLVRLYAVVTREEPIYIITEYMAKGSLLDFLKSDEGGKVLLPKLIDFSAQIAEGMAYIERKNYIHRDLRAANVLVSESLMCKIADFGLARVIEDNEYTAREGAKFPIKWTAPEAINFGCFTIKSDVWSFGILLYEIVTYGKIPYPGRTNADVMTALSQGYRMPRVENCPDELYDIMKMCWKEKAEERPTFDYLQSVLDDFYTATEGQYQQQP
UniProt Q12851: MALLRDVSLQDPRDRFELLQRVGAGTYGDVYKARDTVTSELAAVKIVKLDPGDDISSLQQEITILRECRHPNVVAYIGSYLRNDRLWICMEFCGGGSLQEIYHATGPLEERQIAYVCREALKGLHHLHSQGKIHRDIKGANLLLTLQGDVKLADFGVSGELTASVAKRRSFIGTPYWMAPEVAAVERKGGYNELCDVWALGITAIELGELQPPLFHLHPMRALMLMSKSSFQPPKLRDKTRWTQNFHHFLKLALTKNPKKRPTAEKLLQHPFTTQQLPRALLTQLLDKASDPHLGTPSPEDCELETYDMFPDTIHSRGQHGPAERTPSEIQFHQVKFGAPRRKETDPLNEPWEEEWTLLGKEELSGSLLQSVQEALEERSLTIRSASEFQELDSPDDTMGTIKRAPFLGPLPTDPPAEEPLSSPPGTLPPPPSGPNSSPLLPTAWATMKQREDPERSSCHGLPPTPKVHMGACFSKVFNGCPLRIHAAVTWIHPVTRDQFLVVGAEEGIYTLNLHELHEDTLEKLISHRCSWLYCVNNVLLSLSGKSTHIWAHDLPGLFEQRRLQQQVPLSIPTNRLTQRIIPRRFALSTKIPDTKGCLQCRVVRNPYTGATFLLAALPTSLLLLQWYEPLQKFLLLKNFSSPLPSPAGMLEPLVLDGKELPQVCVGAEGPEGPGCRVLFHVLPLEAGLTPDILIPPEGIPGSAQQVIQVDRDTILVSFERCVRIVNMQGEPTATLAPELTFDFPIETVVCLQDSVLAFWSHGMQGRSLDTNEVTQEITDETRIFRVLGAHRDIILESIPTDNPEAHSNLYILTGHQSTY
UniProt P28482, whole entry: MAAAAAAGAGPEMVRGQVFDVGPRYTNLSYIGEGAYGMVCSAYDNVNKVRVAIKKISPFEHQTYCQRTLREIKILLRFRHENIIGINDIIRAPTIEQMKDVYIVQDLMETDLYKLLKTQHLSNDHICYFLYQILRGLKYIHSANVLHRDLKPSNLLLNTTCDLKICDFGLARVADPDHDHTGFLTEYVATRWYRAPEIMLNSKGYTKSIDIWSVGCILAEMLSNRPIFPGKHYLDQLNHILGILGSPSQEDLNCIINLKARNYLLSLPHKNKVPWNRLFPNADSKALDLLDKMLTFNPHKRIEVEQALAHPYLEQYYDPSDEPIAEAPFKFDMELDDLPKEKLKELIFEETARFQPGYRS
UniProt P31152, whole entry: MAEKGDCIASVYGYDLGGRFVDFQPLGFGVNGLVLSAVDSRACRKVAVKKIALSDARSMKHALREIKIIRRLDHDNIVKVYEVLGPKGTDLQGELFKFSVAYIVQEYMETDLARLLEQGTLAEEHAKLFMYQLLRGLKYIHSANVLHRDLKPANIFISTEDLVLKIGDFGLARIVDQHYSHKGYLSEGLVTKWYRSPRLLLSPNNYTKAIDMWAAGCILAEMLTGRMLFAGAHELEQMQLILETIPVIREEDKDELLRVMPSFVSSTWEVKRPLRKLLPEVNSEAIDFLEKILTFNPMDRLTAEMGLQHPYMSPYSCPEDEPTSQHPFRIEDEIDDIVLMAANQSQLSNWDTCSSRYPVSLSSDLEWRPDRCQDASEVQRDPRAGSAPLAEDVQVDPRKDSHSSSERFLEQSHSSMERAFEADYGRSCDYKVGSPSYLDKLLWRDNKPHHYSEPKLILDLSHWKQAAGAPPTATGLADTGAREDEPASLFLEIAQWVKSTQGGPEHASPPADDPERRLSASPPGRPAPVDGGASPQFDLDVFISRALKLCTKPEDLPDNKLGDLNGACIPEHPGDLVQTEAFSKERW
UniProt Q9BUB5: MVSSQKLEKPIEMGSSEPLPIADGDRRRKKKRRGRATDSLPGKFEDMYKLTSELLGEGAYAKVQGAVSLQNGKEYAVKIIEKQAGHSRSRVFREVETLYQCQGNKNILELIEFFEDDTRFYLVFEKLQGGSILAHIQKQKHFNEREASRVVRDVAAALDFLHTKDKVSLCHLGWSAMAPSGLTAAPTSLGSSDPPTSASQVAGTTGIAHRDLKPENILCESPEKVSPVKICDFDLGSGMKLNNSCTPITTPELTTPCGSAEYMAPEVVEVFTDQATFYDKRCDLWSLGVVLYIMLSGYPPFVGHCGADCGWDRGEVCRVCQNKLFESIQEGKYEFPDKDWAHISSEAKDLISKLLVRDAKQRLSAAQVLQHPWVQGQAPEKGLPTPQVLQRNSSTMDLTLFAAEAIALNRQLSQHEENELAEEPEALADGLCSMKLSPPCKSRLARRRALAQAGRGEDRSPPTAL
UniProt Q16288, whole entry, looked up: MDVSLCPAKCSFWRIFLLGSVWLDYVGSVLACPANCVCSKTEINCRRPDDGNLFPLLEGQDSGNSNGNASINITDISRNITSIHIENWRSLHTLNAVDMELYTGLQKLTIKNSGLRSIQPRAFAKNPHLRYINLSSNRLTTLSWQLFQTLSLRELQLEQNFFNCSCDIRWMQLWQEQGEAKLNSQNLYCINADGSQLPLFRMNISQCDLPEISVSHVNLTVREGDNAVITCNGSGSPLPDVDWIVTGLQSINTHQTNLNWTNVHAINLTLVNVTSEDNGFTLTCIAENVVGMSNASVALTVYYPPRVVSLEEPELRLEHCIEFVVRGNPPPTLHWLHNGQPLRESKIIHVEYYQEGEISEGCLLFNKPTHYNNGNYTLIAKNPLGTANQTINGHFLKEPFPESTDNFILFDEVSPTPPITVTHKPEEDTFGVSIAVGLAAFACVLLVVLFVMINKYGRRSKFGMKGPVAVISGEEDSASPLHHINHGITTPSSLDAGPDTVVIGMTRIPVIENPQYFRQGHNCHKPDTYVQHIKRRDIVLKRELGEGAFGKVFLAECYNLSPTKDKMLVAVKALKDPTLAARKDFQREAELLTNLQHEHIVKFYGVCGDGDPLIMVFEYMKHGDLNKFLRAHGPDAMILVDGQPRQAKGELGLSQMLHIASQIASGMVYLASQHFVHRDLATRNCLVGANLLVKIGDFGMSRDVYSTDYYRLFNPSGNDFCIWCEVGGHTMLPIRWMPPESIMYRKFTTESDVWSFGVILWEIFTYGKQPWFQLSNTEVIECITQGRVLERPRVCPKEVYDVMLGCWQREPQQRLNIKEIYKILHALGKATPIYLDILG
UniProt Q96KB5: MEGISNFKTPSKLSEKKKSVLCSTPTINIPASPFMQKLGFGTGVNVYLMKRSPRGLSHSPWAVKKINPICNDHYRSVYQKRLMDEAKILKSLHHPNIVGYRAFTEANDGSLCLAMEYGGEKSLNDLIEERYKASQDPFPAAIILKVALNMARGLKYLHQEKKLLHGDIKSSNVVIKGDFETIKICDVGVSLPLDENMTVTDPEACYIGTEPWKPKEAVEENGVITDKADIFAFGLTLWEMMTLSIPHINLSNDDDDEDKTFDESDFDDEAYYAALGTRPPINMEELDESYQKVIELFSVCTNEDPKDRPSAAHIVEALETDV
UniProt P09619, whole entry: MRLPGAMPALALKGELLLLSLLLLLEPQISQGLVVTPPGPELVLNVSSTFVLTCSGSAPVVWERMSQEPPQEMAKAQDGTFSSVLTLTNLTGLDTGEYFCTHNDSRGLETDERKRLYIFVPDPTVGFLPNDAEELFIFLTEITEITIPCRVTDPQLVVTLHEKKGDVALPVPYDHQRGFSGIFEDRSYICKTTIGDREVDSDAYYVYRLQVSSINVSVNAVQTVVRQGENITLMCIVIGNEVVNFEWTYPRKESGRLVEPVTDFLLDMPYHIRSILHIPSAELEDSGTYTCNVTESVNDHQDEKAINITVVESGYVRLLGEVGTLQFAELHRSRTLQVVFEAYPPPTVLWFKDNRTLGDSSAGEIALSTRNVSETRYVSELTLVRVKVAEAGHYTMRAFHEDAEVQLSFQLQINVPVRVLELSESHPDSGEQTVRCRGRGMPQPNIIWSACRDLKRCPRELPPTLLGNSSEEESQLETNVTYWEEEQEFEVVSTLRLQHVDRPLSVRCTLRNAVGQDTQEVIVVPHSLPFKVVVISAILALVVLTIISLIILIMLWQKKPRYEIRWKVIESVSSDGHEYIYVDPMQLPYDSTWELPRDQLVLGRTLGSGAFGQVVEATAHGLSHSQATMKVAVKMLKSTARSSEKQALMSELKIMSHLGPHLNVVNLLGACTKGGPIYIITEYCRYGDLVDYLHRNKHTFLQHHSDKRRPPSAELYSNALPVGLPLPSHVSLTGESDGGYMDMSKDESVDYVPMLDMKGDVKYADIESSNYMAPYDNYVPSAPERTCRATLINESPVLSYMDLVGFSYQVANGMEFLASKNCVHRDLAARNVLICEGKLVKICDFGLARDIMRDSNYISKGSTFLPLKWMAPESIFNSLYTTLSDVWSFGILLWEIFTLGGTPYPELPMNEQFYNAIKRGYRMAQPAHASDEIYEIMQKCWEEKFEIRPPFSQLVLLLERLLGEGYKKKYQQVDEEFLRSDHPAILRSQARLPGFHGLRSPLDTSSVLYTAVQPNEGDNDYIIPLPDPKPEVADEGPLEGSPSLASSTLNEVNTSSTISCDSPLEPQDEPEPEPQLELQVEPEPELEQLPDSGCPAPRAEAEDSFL
UniProt Q15118, whole entry, looked up: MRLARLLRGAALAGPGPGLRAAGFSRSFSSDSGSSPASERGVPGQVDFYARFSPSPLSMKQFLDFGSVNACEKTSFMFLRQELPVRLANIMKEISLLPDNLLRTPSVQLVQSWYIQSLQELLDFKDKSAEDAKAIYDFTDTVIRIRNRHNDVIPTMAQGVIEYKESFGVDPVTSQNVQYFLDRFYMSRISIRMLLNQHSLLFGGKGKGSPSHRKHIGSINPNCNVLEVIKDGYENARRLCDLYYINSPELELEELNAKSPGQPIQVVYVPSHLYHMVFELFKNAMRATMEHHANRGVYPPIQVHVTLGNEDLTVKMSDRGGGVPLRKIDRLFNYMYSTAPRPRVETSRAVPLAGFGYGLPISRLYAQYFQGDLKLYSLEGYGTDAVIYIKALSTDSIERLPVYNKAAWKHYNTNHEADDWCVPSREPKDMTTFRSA

What was measured:
Assay in all cases: kinase-Nluc reporter destabilization hit call (1 = scored as downregulated) (binary); higher = compound decreases kinase abundance
Conditions in all cases: K562; 2-18 h
IRAK3 = IRAK3 (UniProt Q9Y616)
JAK1 = JAK1 (UniProt P23458)
LCK = LCK (UniProt P06239)
LIMK1 = LIMK1 (UniProt P53667)
LIMK2 = LIMK2 (UniProt P53671)
LMTK2 = LMTK2 (UniProt Q8IWU2)
LYN = LYN (UniProt P07948)
MAP2K1 = MAP2K1 (UniProt Q02750)
MAP2K2 = MAP2K2 (UniProt P36507)
MAP4K2 = MAP4K2 (UniProt Q12851)
MAPK1 = MAPK1 (UniProt P28482)
MAPK4 = MAPK4 (UniProt P31152)
MAPKAPK2 = MAPKAPK2 (UniProt P49137)
MKNK1 = MKNK1 (UniProt Q9BUB5)
NTRK2 = NTRK2 (UniProt Q16620)
NTRK3 = NTRK3 (UniProt Q16288)
PAK4 = PAK4 (UniProt O96013)
PBK = PBK (UniProt Q96KB5)
PDGFRB = PDGFRB (UniProt P09619)
PDK1 = PDK1 (UniProt Q15118)

Measured: kinase-Nluc reporter destabilization hit call

O=C(Nc1ccc(CN2CCOCC2)cc1)c1ccc(-c2cccc(Cl)c2)o1 (10 µM)
inactive: IRAK3 = 0 | JAK1 = 0 | LCK 0 | LIMK1 = 0 | LIMK2 = 0 | LMTK2 = 0 | LYN 0 | MAP2K1 = 0 | MAP2K2 = 0 | MAP4K2 = 0 | MAPK1 = 0 | MAPK4 = 0 | MAPKAPK2 = 0 | MKNK1 = 0 | NTRK2 = 0 | NTRK3 = 0 | PAK4 = 0 | PBK 0 | PDGFRB 0 | PDK1 = 0

CN(C)CCCOc1ccc(-c2ccc3ncc4c(c3c2)n(C2CCOCC2)c(=O)n4C)cn1 (2 µM)
inactive: IRAK3 = 0 | JAK1 = 0 | LCK 0 | LIMK1 = 0 | LIMK2 = 0 | LMTK2 = 0 | LYN 0 | MAP2K1 = 0 | MAP2K2 = 0 | MAP4K2 = 0 | MAPK1 = 0 | MAPK4 = 0 | MAPKAPK2 = 0 | MKNK1 = 0 | NTRK2 = 0 | NTRK3 = 0 | PAK4 = 0 | PBK 0 | PDGFRB 0 | PDK1 = 0

CC(C)(C)c1cc(O)ccc1O (10 µM)
inactive: IRAK3 = 0 | JAK1 = 0 | LCK 0 | LIMK1 = 0 | LIMK2 = 0 | LMTK2 = 0 | LYN 0 | MAP2K1 = 0 | MAP2K2 = 0 | MAP4K2 = 0 | MAPK1 = 0 | MAPK4 = 0 | MAPKAPK2 = 0 | MKNK1 = 0 | NTRK2 = 0 | NTRK3 = 0 | PAK4 = 0 | PBK 0 | PDGFRB 0 | PDK1 = 0

O=C1Nc2ccc(C(=O)c3ccco3)cc2C1=Cc1cc(Cl)c(O)c(Cl)c1 (2.5 µM)
inactive: IRAK3 = 0 | JAK1 = 0 | LCK 0 | LIMK1 = 0 | LIMK2 = 0 | LMTK2 = 0 | LYN 0 | MAP2K1 = 0 | MAP2K2 = 0 | MAP4K2 = 0 | MAPK1 = 0 | MAPK4 = 0 | MAPKAPK2 = 0 | MKNK1 = 0 | NTRK2 = 0 | NTRK3 = 0 | PAK4 = 0 | PBK 0 | PDGFRB 0 | PDK1 = 0

C[C@]1(O)CCN(c2nc(N3C[C@H](O)[C@@H](O)C3)cc(C(F)(F)F)c2C#N)C1 (10 µM)
inactive: IRAK3 = 0 | JAK1 = 0 | LCK 0 | LIMK1 = 0 | LIMK2 = 0 | LMTK2 = 0 | LYN 0 | MAP2K1 = 0 | MAP2K2 = 0 | MAP4K2 = 0 | MAPK1 = 0 | MAPK4 = 0 | MAPKAPK2 = 0 | MKNK1 = 0 | NTRK2 = 0 | NTRK3 = 0 | PAK4 = 0 | PBK 0 | PDGFRB 0 | PDK1 = 0

CCN1CCN(Cc2ccc(Nc3ncc(F)c(-c4cc(F)c5nc(C)n(C(C)C)c5c4)n3)nc2)CC1 [Abemaciclib] (2 µM)
inactive: IRAK3 = 0 | JAK1 = 0 | LCK 0 | LIMK1 = 0 | LIMK2 = 0 | LMTK2 = 0 | LYN 0 | MAP2K1 = 0 | MAP2K2 = 0 | MAP4K2 = 0 | MAPK1 = 0 | MAPK4 = 0 | MAPKAPK2 = 0 | MKNK1 = 0 | NTRK2 = 0 | NTRK3 = 0 | PAK4 = 0 | PBK 0 | PDGFRB 0 | PDK1 = 0

COc1cc(OC2CCN(C)CC2)ccc1Nc1ncc2c(n1)n(C1CCCC1)c(=O)n2C (10 µM)
inactive: IRAK3 = 0 | JAK1 = 0 | LCK 0 | LIMK1 = 0 | LIMK2 = 0 | LMTK2 = 0 | LYN 0 | MAP2K1 = 0 | MAP2K2 = 0 | MAP4K2 = 0 | MAPK1 = 0 | MAPK4 = 0 | MAPKAPK2 = 0 | MKNK1 = 0 | NTRK2 = 0 | NTRK3 = 0 | PAK4 = 0 | PBK 0 | PDGFRB 0 | PDK1 = 0

S=C(SSC(=S)N1CCOCC1)N1CCOCC1 (10 µM)
inactive: IRAK3 = 0 | JAK1 = 0 | LCK 0 | LIMK1 = 0 | LIMK2 = 0 | LMTK2 = 0 | LYN 0 | MAP2K1 = 0 | MAP2K2 = 0 | MAP4K2 = 0 | MAPK1 = 0 | MAPK4 = 0 | MAPKAPK2 = 0 | MKNK1 = 0 | NTRK2 = 0 | NTRK3 = 0 | PAK4 = 0 | PBK 0 | PDGFRB 0 | PDK1 = 0

Cc1ccc(C(=O)Nc2ccc(Oc3cc4cnn(C)c4cc3-c3cn[nH]c3)c(F)c2)c(=O)n1-c1ccc(F)cc1 [Merestinib dihydrochloride] (2.5 µM)
inactive: IRAK3 = 0 | JAK1 = 0 | LCK 0 | LIMK1 = 0 | LIMK2 = 0 | LMTK2 = 0 | LYN 0 | MAP2K1 = 0 | MAP2K2 = 0 | MAP4K2 = 0 | MAPK1 = 0 | MAPK4 = 0 | MAPKAPK2 = 0 | MKNK1 = 0 | NTRK2 = 0 | NTRK3 = 0 | PAK4 = 0 | PBK 0 | PDGFRB 0 | PDK1 = 0

NCCNS(=O)(=O)c1cccc2c(Cl)cccc12 [A-3 (hydrochloride)] (10 µM)
inactive: IRAK3 = 0 | JAK1 = 0 | LCK 0 | LIMK1 = 0 | LIMK2 = 0 | LMTK2 = 0 | LYN 0 | MAP2K1 = 0 | MAP2K2 = 0 | MAP4K2 = 0 | MAPK1 = 0 | MAPK4 = 0 | MAPKAPK2 = 0 | MKNK1 = 0 | NTRK2 = 0 | NTRK3 = 0 | PAK4 = 0 | PBK 0 | PDGFRB 0 | PDK1 = 0

CCc1c(C(=O)NNC(=O)C(O)c2cc(F)cc(F)c2)ccc(O)c1C (stereo not given) (10 µM)
inactive: IRAK3 = 0 | JAK1 = 0 | LCK 0 | LIMK1 = 0 | LIMK2 = 0 | LMTK2 = 0 | LYN 0 | MAP2K1 = 0 | MAP2K2 = 0 | MAP4K2 = 0 | MAPK1 = 0 | MAPK4 = 0 | MAPKAPK2 = 0 | MKNK1 = 0 | NTRK2 = 0 | NTRK3 = 0 | PAK4 = 0 | PBK 0 | PDGFRB 0 | PDK1 = 0

Cc1ccc(C(=O)Nc2ccc(Oc3cc4cnn(C)c4cc3-c3cn[nH]c3)c(F)c2)c(=O)n1-c1ccc(F)cc1 [Merestinib] (2.5 µM)
inactive: IRAK3 = 0 | JAK1 = 0 | LCK 0 | LIMK2 = 0 | LMTK2 = 0 | LYN 0 | MAP2K1 = 0 | MAP2K2 = 0 | MAP4K2 = 0 | MAPK1 = 0 | MAPK4 = 0 | MAPKAPK2 = 0 | MKNK1 = 0 | NTRK2 = 0 | NTRK3 = 0 | PAK4 = 0 | PBK 0 | PDGFRB 0 | PDK1 = 0
active: LIMK1 = 1

OCCn1cc(-c2ccc3c(c2)CC/C3=N\O)c(-c2ccncc2)n1 (10 µM)
inactive: IRAK3 = 0 | JAK1 = 0 | LCK 0 | LIMK1 = 0 | LIMK2 = 0 | LMTK2 = 0 | LYN 0 | MAP2K1 = 0 | MAP2K2 = 0 | MAP4K2 = 0 | MAPK1 = 0 | MAPK4 = 0 | MAPKAPK2 = 0 | MKNK1 = 0 | NTRK2 = 0 | NTRK3 = 0 | PAK4 = 0 | PBK 0 | PDGFRB 0 | PDK1 = 0

c1cc(-c2c[nH]c3nccc(N4CCC[C@@]5(CCCCN5)C4)c23)ncn1 (10 µM)
inactive: IRAK3 = 0 | JAK1 = 0 | LCK 0 | LIMK1 = 0 | LIMK2 = 0 | LMTK2 = 0 | LYN 0 | MAP2K1 = 0 | MAP2K2 = 0 | MAP4K2 = 0 | MAPK1 = 0 | MAPK4 = 0 | MAPKAPK2 = 0 | MKNK1 = 0 | NTRK2 = 0 | NTRK3 = 0 | PAK4 = 0 | PBK 0 | PDGFRB 0 | PDK1 = 0

O=C(NCCN1CCOCC1)c1cc2c(Oc3ccc(NC(=O)C4(C(=O)Nc5ccc(F)cc5)CC4)cc3)ccnc2[nH]1 [Tyrosine kinase inhibitor] (10 µM)
inactive: IRAK3 = 0 | JAK1 = 0 | LCK 0 | LIMK1 = 0 | LIMK2 = 0 | LMTK2 = 0 | LYN 0 | MAP2K1 = 0 | MAP2K2 = 0 | MAP4K2 = 0 | MAPK1 = 0 | MAPK4 = 0 | MAPKAPK2 = 0 | MKNK1 = 0 | NTRK2 = 0 | NTRK3 = 0 | PAK4 = 0 | PBK 0 | PDGFRB 0 | PDK1 = 0

c1ccc(-c2[nH]ncc2-c2ccnc3ccccc23)nc1 (10 µM)
inactive: IRAK3 = 0 | JAK1 = 0 | LCK 0 | LIMK1 = 0 | LIMK2 = 0 | LMTK2 = 0 | LYN 0 | MAP2K1 = 0 | MAP2K2 = 0 | MAP4K2 = 0 | MAPK1 = 0 | MAPK4 = 0 | MAPKAPK2 = 0 | MKNK1 = 0 | NTRK2 = 0 | NTRK3 = 0 | PAK4 = 0 | PBK 0 | PDGFRB 0 | PDK1 = 0

CN1CCC(c2cc(-c3ccncc3)c(-c3ccc(F)cc3)[nH]2)CC1 (10 µM)
inactive: IRAK3 = 0 | JAK1 = 0 | LCK 0 | LIMK1 = 0 | LIMK2 = 0 | LMTK2 = 0 | LYN 0 | MAP2K1 = 0 | MAP2K2 = 0 | MAP4K2 = 0 | MAPK1 = 0 | MAPK4 = 0 | MAPKAPK2 = 0 | MKNK1 = 0 | NTRK2 = 0 | NTRK3 = 0 | PAK4 = 0 | PBK 0 | PDGFRB 0 | PDK1 = 0

CCC(C)N1c2ccccc2C(=O)N(C)c2cnc(Nc3ccc(C(=O)N4CCC(N5CCN(C)CC5)CC4)cc3OC)nc21 (stereo not given) (2.5 µM)
inactive: IRAK3 = 0 | JAK1 = 0 | LCK 0 | LIMK1 = 0 | LIMK2 = 0 | LMTK2 = 0 | LYN 0 | MAP2K1 = 0 | MAP2K2 = 0 | MAP4K2 = 0 | MAPK1 = 0 | MAPK4 = 0 | MAPKAPK2 = 0 | MKNK1 = 0 | NTRK2 = 0 | NTRK3 = 0 | PAK4 = 0 | PBK 0 | PDGFRB 0 | PDK1 = 0

CC(=O)NC1CC(n2cnc(NC(=O)Cc3ccc4ccccc4c3)c2)C1 (stereo not given) (10 µM)
inactive: IRAK3 = 0 | JAK1 = 0 | LCK 0 | LIMK1 = 0 | LIMK2 = 0 | LMTK2 = 0 | LYN 0 | MAP2K1 = 0 | MAP2K2 = 0 | MAP4K2 = 0 | MAPK1 = 0 | MAPK4 = 0 | MAPKAPK2 = 0 | MKNK1 = 0 | NTRK2 = 0 | NTRK3 = 0 | PAK4 = 0 | PBK 0 | PDGFRB 0 | PDK1 = 0

Looked up one by one from above, 2 records:
CN1CCC(c2cc(-c3ccncc3)c(-c3ccc(F)cc3)[nH]2)CC1 (10 µM)
inactive: IRAK3 = 0 | JAK1 = 0 | LCK 0 | LIMK1 = 0 | LIMK2 = 0 | LMTK2 = 0 | LYN 0 | MAP2K1 = 0 | MAP2K2 = 0 | MAP4K2 = 0 | MAPK1 = 0 | MAPK4 = 0 | MAPKAPK2 = 0 | MKNK1 = 0 | NTRK2 = 0 | NTRK3 = 0 | PAK4 = 0 | PBK 0 | PDGFRB 0 | PDK1 = 0

CC(=O)NC1CC(n2cnc(NC(=O)Cc3ccc4ccccc4c3)c2)C1 (stereo not given) (10 µM)
inactive: IRAK3 = 0 | JAK1 = 0 | LCK 0 | LIMK1 = 0 | LIMK2 = 0 | LMTK2 = 0 | LYN 0 | MAP2K1 = 0 | MAP2K2 = 0 | MAP4K2 = 0 | MAPK1 = 0 | MAPK4 = 0 | MAPKAPK2 = 0 | MKNK1 = 0 | NTRK2 = 0 | NTRK3 = 0 | PAK4 = 0 | PBK 0 | PDGFRB 0 | PDK1 = 0
